Results deposited as PubChem BioAssay AID686937 (Drosophila RNAi Screening Center, 2013)
Aim: 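Genes in the fly needed for secretion of protein constitutively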 (primary screen). System: Drosophila S2 cells expressing secreted horseradish peroxidase. Reagents: long dsRNA against Drosophila genes. Duration: about 5.5 days (5 days dsRNA, then 12 h reporter induction). Challenge: reporter expression induced after 5 days of dsRNA, read 12 h later; inducer not stated. Measured: 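Chemiluminescent measurement of peroxidase in the medium 12 h after reporter induction, following 5 days of dsRNA, given as a z-score per plate; higher means more secretion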. Scale: z-score: higher = more reporter secreted into medium.
The screen tested about 23,000 reagents; below is a random part of those with a known target gene and a result. 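Reduced-secretion tags in replicate 1 do not always agree with the z-scores; no criterion for assigning the tags was given.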 The numbers tell different reagents against one gene apart. A plus sign joins genes that one reagent is predicted to hit. Not all columns of the deposit are shown. The record does not give: the amount of reagent.

target gene | reagent | z-score, replicate 1 | z-score, replicate 2
CG1523 (GeneID 43400) | 1 | 0.34 | 0.11
CG9581 (GeneID 33017) | 1 | 0.24 | 0.19
CG9581 (GeneID 33017) | 2 | -0.42 | 0.4
CG10979 (GeneID 40720) | 1 | 0.31 | 0.31
CG6665 (GeneID 36903) | 1 | 0.34 | 0.5
Or65b (GeneID 318012) | 1 | 0.32 | 0.49
rogdi (GeneID 39917) | 1 | 0.27 | 0.3
CG4286 (GeneID 37416) | 1 | -0.11 | 0.09
TotX (GeneID 117460) | 1 | -0.27 | -0.1
CG13285 (GeneID 38623) | 1 | 0.24 | 0.13
CG15563 (GeneID 43695) | 1 | 0 | 0.24
CG5611 (GeneID 43318) | 1 | 0.6 | 0.37
CG11710 (GeneID 33044) | 1 | 0.4 | 0.19
r-l (GeneID 42493) | 1 | 0.14 | 0.38
r-l (GeneID 42493) | 2 | 0.87 | 2.35
Ance-4 (GeneID 35909) | 1 | 0.21 | 0.32
nbs (GeneID 44259) | 1 | 0.29 | 0.03
bdg (GeneID 36747) | 1 | 0.32 | 0.42
CG1894 (GeneID 43378) | 1 | 0.42 | 0.25
RAF2 (GeneID 39821) | 1 | 0.25 | 0.27
RAF2 (GeneID 39821) | 2 | 0.23 | 0.16
Efa6 (GeneID 42665) | 1 | 0.4 | 0.4
Efa6 (GeneID 42665) | 2 | 0.19 | 0.28
Efa6 (GeneID 42665) | 3 | 0.67 | 0.57
sosie (GeneID 42961) | 1 | 0.26 | 0.18
sosie (GeneID 42961) | 2 | 0.33 | -0.15
CG4593 (GeneID 31649) | 1 | 0.03 | 0.58
CG31347 (GeneID 318693) | 1 | 0.56 | 1.89
Cht10 (GeneID 3355116) | 1 | 0.04 | 0.41
Cht10 (GeneID 3355116) | 2 | 0.18 | 0.25
Cht10 (GeneID 3355116) | 3 | 0.09 | 0.23
CG9636 (GeneID 40967) | 1 | 0.42 | 0.33
CG34288 (GeneID 5740644) | 1 | 0.29 | 0.37
CG9967 (GeneID 33414) | 1 | -6.75 | 0.41
CG2182 (GeneID 40697) | 1 | 0.32 | 0.2
Hel25E (GeneID 33781) | 1 | -5.15 | -5.84
Vdup1 (GeneID 38023) | 1 | 0.51 | 0.12
Mob3 (GeneID 34372) | 1 | 0.31 | 0.31
CG32137 (GeneID 39537) | 1 | 0 | -0.04
CG32137 (GeneID 39537) | 2 | -0.65 | -2.22
CG30049 (GeneID 246416) | 1 | 0.25 | -0.07
scf (GeneID 38145) | 1 | 0.15 | 0.21
Txl (GeneID 38646) | 1 | 0.24 | 0.25
CG3704 (GeneID 31043) | 1 | 0.41 | 0.37
CG3704 (GeneID 31043) | 2 | 0.42 | 0.38
CG15525 (GeneID 43556) | 1 | 0.22 | 0.27
Cpr47Ec (GeneID 36191) | 1 | 0.04 | 0
CG9286 (GeneID 41690) | 1 | 0.21 | 0.4
borr (GeneID 34245) | 1 | -1.64 | -1.04
Pep (GeneID 45961) | 1 | 0.02 | 0
CG31823 (GeneID 326163) | 1 | 0.11 | 0.19
Cp7Fa (GeneID 3885650) | 1 | 0.25 | 0.65
Cp7Fa (GeneID 3885650) | 2 | 0.21 | 0.28
CG33191 + Pif1B | 1 | -0.12 | 0.43
CG44433 (GeneID 37150) | 1 | 0.46 | 0.38
CG44433 (GeneID 37150) | 2 | 0.36 | 0.29
Loxl2 (GeneID 37485) | 1 | 0.34 | 0.3
CG13564 (GeneID 37855) | 1 | 0.13 | -0.05
CG11584 (GeneID 32363) | 1 | 0.5 | 0.67
alpha-PheRS (GeneID 31740) | 1 | -0.51 | -0.69
alpha-Man-IIa (GeneID 41126) | 1 | 0 | 0.21
CG17754 (GeneID 31873) | 1 | 0.05 | 0.32
Vha44 (GeneID 36826) | 1 | -0.7 | -0.24
Vha44 (GeneID 36826) | 2 | 0.31 | 0.14
BaraB (GeneID 35894) | 1 | 0.25 | 0.1
nudE (GeneID 39169) | 1 | 0.62 | 0.38
nudE (GeneID 39169) | 2 | 0.03 | -0.04
CG6180 (GeneID 34683) | 1 | 0.46 | 0.32
ida (GeneID 45574) | 1 | -0.78 | -0.13
Ccp84Af (GeneID 40820) | 1 | 0.28 | -0.39
CG33635 (GeneID 3772540) | 1 | -0.8 | 0.26
CG31937 (GeneID 326177) | 1 | 0.4 | 0.21
vsg (GeneID 39137) | 1 | 0.43 | -0.1
CG10508 (GeneID 40342) | 1 | -0.03 | 0.22
CG10508 (GeneID 40342) | 2 | 0.36 | 0.52
CG13991 (GeneID 33868) | 1 | 0.19 | 0.26
CG18810 (GeneID 59171) | 1 | 0.28 | 0.11
CG4619 (GeneID 34321) | 1 | 0.11 | 0.4
Pvf2 (GeneID 33994) | 1 | -1.39 | -1.23
Pvf2 (GeneID 33994) | 2 | -0.85 | -0.23
CG3184 (GeneID 31608) | 1 | 0.29 | 0.39
Lsp1beta (GeneID 33274) | 1 | 0.32 | 0.44

Entries listed so far whose gene name starts with B or b:
target gene | reagent | z-score, replicate 1 | z-score, replicate 2
bdg (GeneID 36747) | 1 | 0.32 | 0.42
borr (GeneID 34245) | 1 | -1.64 | -1.04
BaraB (GeneID 35894) | 1 | 0.25 | 0.1
